The results in this text go back to the supplement of paper PMC8090911.

Structures can show the parent of a compound that is named as a salt. Some of the results follow. Repeats are few or missing, and single values can be far off.

The test system of the test is p95-ErbB2-MCF7. Kind of test: perinuclear lysosome accumulation (PNLA, size of LAMP2 puncta), robust Z-score vs plate median; higher = more perinuclear lysosome accumulation (reversal of invasive lysosome distribution). To be noted: 5 µM; 24 h.
Regarding `COc1ccc(Cl)cc1C(=O)NCCc1ccc(S(=O)(=O)NC(=O)NC2CCCCC2)cc1` [Glibenclamide], the perinuclear lysosome accumulation came to 1.12.
Turning to `CC#C[C@]1(O)CC[C@H]2[C@@H]3CCC4=CC(=O)CCC4=C3[C@@H](c3ccc(N(C)C)cc3)C[C@@]21C` [Mifepristone], the perinuclear lysosome accumulation was -0.433.
For `CCC[C@@H]1C[C@@H](C(=O)N[C@@H]([C@H]2O[C@H](SC)[C@H](OP(=O)(O)O)[C@@H](O)[C@H]2O)[C@H](C)Cl)N(C)C1` [Clindamycin Phosphate], the perinuclear lysosome accumulation was found to be 0.0332.
For `CCCOc1ccccc1-c1nc2[nH]nnc2c(=O)[nH]1` [Zaprinast], the perinuclear lysosome accumulation stood at 1.54.
For `Cc1c(Nc2ncccc2C(=O)O)cccc1C(F)(F)F` [Flunixin meglumine], the perinuclear lysosome accumulation was -0.265.
As to `CC[C@H](c1ccc(O)cc1)[C@@H](CC)c1ccc(O)cc1` [Hexestrol], the perinuclear lysosome accumulation came to 1.18.
In the case of `CC1(C)O[C@@H]2C[C@H]3[C@@H]4C[C@H](F)C5=CC(=O)C=C[C@]5(C)[C@H]4[C@@H](O)C[C@]3(C)[C@]2(C(=O)CO)O1` [Flunisolide], the perinuclear lysosome accumulation was -0.989.
In the case of `C[C@H](CS)C(=O)N1CCC[C@H]1C(=O)O` [Captopril], the perinuclear lysosome accumulation was determined as 1.36.
For `CN(Cc1cc(Br)cc(Br)c1N)C1CCCCC1` [Bromhexine hydrochloride] the value was -1.09.
As for `NCCc1ccc(O)c(O)c1` [Dopamine hydrochloride], the perinuclear lysosome accumulation is -2.1.
For `CC(C)C(=O)c1c(C(C)C)nn2ccccc12` [Ibudilast] the value was -0.757; for `OC(CCN1CCCC1)(c1ccccc1)C1CCCCC1` (stereo not given) [Procyclidine hydrochloride], 1.81.
Regarding `CC(CN(C)C)CN1c2ccccc2CCc2ccccc21` (stereo not given) [Trimipramine maleate salt], the perinuclear lysosome accumulation was 0.882.
With `C=C1C(=O)O[C@H]2[C@H]1CC/C(C)=C/CC[C@@]1(C)O[C@@H]21` [Parthenolide], the perinuclear lysosome accumulation is -0.6.
On to `CCCCOc1ccc(C(=O)CCN2CCCCC2)cc1` [Dyclonine hydrochloride], for which the perinuclear lysosome accumulation amounted to 0.581.
`Cn1nnc2c(C(N)=O)ncn2c1=O` [Temozolomide]: the perinuclear lysosome accumulation was 0.133.
`CN1[C@@H]2CC[C@H]1C[C@@H](OC(=O)C(O)c1ccccc1)C2` (mixture of isomers) [Homatropine hydrobromide (R,S)]: the perinuclear lysosome accumulation is -0.000761.
As to `CC(C)(C)NC(=O)[C@H]1CC[C@H]2[C@@H]3CC[C@H]4NC(=O)C=C[C@]4(C)[C@H]3CC[C@]12C` [Finasteride], the perinuclear lysosome accumulation came to 0.589.
With `Nc1nc(N)c2nc(-c3ccccc3)c(N)nc2n1` [Triamterene], the perinuclear lysosome accumulation is -0.742.
As to `CN1CCCN=C1/C=C/c1cccs1` [Pyrantel tartrate], the perinuclear lysosome accumulation is -0.838.
For `CCC[C@@H]1C[C@@H](C(=O)N[C@@H]([C@H]2O[C@H](SC)[C@H](O)[C@@H](O)[C@H]2O)[C@@H](C)O)N(C)C1` [Lincomycin hydrochloride], the perinuclear lysosome accumulation is -0.552.
As for `C#C[C@]1(O)CC[C@H]2[C@@H]3CCC4=Cc5oncc5C[C@]4(C)[C@H]3CC[C@@]21C` [Danazol], the perinuclear lysosome accumulation was 1.85.
For `CCOc1ccc(Cc2nccc3cc(OCC)c(OCC)cc23)cc1OCC` [Ethaverine hydrochloride] the value was 1.7.
Turning to `O=C(Nc1ccc([N+](=O)[O-])cc1Cl)c1cc(Cl)ccc1O` [Niclosamide], the perinuclear lysosome accumulation worked out at 5.99.
For `CC12CC3CC(C)(C1)CC(N)(C3)C2` [Memantine Hydrochloride] the value was 0.0969.
Regarding `CCN1CCCC1CNC(=O)c1cc(S(N)(=O)=O)ccc1OC` (stereo not given) [Sulpiride], the perinuclear lysosome accumulation worked out at 0.267.
Consider `CCCCc1oc2ccccc2c1C(=O)c1cc(I)c(OCCN(CC)CC)c(I)c1` [Amiodarone hydrochloride], for which the perinuclear lysosome accumulation is -0.000491.
Take `O=C(O)c1cccnc1` [Niacin]: the perinuclear lysosome accumulation was -3.15.
Next, `Cc1cccc(N(C)C(=S)Oc2ccc3ccccc3c2)c1` [Tolnaftate]: 0.569; `O=c1[nH]c(=O)n([C@H]2C[C@H](O)[C@@H](CO)O2)cc1I` [Idoxuridine]: -0.294.
With `CC1(C)O[C@@H]2C[C@H]3[C@@H]4C[C@H](F)C5=CC(=O)CC[C@]5(C)[C@H]4[C@@H](O)C[C@]3(C)[C@]2(C(=O)CO)O1` [Flurandrenolide], the perinuclear lysosome accumulation turned out to be 0.248.
Turning to `NNC(=O)c1ccncc1` [Isoniazid], the perinuclear lysosome accumulation was -3.46.
For the compound `C[C@H](CCC(=O)O)[C@H]1CC[C@H]2[C@@H]3C(=O)C[C@@H]4CC(=O)CC[C@]4(C)[C@H]3CC(=O)[C@]12C` [Dehydrocholic acid], the perinuclear lysosome accumulation is -0.265.
For `CCOC(=O)C1=C(C)NC(C)=C(C(=O)OC)C1c1cccc(Cl)c1Cl` (stereo not given) [Felodipine] the value was 0.725; for `O=C1c2c(O)ccc(O)c2C(=O)c2c(NCCNCCO)ccc(NCCNCCO)c21` [Mitoxantrone dihydrochloride], 0.68; for `O=C(NC(Cc1cc(=O)[nH]c2ccccc12)C(=O)O)c1ccc(Cl)cc1` (stereo not given) [Rebamipide], 0.757.
Consider `Nc1ncn(C2OC(CO)C(O)C2O)c(=O)n1` (stereo not given) [Azacytidine-5], for which the perinuclear lysosome accumulation was -0.532.
Next, `C[N+](C)(C)CCOC(N)=O` [Carbachol]: 0.546; `CC(C)(C)NC[C@H](O)COc1cccc2c1CCCC2=O` [(-) -Levobunolol hydrochloride]: -1.41; `O=C(O)CCC(=O)c1ccc(-c2ccccc2)cc1` [Fenbufen]: -0.0788.
Next, `N[C@@H](Cc1ccc(O)c(O)c1)C(=O)O` [Levodopa]: 0.816; `CN1CCN2c3ccccc3Cc3ccccc3C2C1` (stereo not given) [Mianserine hydrochloride]: 0.113.
`CC(C)NNC(=O)c1ccncc1` [Iproniazide phosphate]: the perinuclear lysosome accumulation came to 0.344.
Consider `CCN(CC)CCNC(=O)c1cc(Br)c(N)cc1OC` [Bromopride], for which the perinuclear lysosome accumulation was found to be 1.02.
`OC(CCN1CCCCC1)(c1ccccc1)c1ccccc1` [Pridinol methanesulfonate salt]: the perinuclear lysosome accumulation was -0.0216.
As to `OCCN1CCN(CC/C=C2/c3ccccc3Sc3ccc(Cl)cc32)CC1` [Zuclopenthixol hydrochloride], the perinuclear lysosome accumulation is 1.73.
On to `Nc1ccc(/N=N/c2ccccc2)c(N)n1` [Phenazopyridine hydrochloride], for which the perinuclear lysosome accumulation came out at 1.04.
Take `CN(C)CCOC(=O)C(c1ccccc1)C1(O)CCCC1` (stereo not given) [Cyclopentolate hydrochloride]: the perinuclear lysosome accumulation amounted to 0.961.
For `CC1=CC(=O)C2=C(C)CC[C@@H]3[C@H](OC(=O)[C@H]3C)[C@@H]12` [Leucomisine] the value was -0.17; for `CCC(=O)O[C@]1(C(=O)SCF)[C@H](C)C[C@H]2[C@@H]3C[C@H](F)C4=CC(=O)C=C[C@]4(C)[C@@]3(F)[C@@H](O)C[C@@]21C` [Fluticasone propionate], -0.359; for `CC[N+](C)(CC)CCC[n+]1c(-c2ccccc2)c2cc(N)ccc2c2ccc(N)cc21` [Propidium iodide], 1.06.
For `O=C(O)c1ccccc1Nc1cccc(C(F)(F)F)c1` [Flufenamic acid] the value was -0.146; for `Clc1ccc(C(c2ccccc2Cl)C(Cl)Cl)cc1` (stereo not given) [Mitotane], -0.488.
Next, `O=C1O[C@H]([C@@H](O)CO)C(O)=C1O` [Ascorbic acid]: 1.52.
With `Nc1ccc(C(=O)O)c(O)c1` [4-aminosalicylic acid], the perinuclear lysosome accumulation was -1.04.
For `O=C1Nc2ccc(Cl)cc2[C@@](C#CC2CC2)(C(F)(F)F)O1` [Efavirenz], the perinuclear lysosome accumulation came to 0.0698.
Regarding `CC(=O)Oc1ccc(C(c2ccc(OC(C)=O)cc2)c2ccccn2)cc1` [Bisacodyl], the perinuclear lysosome accumulation was -0.379.
Turning to `CCCc1nn(C)c2c(=O)[nH]c(-c3cc(S(=O)(=O)N4CCN(C)CC4)ccc3OCC)nc12` [Sildenafil], the perinuclear lysosome accumulation was found to be 0.624.
For `CCCNC(C)(C)COC(=O)c1ccccc1` [Meprylcaine hydrochloride], the perinuclear lysosome accumulation was 0.366.
`CCC1(C)CC(=O)NC1=O` (stereo not given) [Ethosuximide]: the perinuclear lysosome accumulation stood at 0.216.
With `CC(NCCc1ccc(O)cc1)C(O)c1ccc(O)cc1` (stereo not given) [Ritodrine hydrochloride], the perinuclear lysosome accumulation was -0.0937.
For the compound `C[N+](C)(CCOc1ccccc1)Cc1ccccc1.O=C([O-])c1cc2ccccc2cc1O` [Bephenium hydroxynaphthoate], the perinuclear lysosome accumulation turned out to be 1.04.
On to `CCc1nn(CCCN2CCN(c3cccc(Cl)c3)CC2)c(=O)n1CCOc1ccccc1` [Nefazodone HCl], for which the perinuclear lysosome accumulation turned out to be 1.83.
Turning to `Cc1c(OCC(F)(F)F)ccnc1C[S+]([O-])c1nc2ccccc2[nH]1` (stereo not given) [Lansoprazole], the perinuclear lysosome accumulation was -0.64.
For `Cn1c(=O)c2c(ncn2C)n(C)c1=O` [Caffeine], the perinuclear lysosome accumulation stood at 0.638.
Take `COC(=O)Nc1nc2cc(C(=O)c3ccc(F)cc3)ccc2[nH]1` [Flubendazol]: the perinuclear lysosome accumulation was -1.99.
With `COC1=CC(=O)C[C@@H](C)[C@]12Oc1c(Cl)c(OC)cc(OC)c1C2=O` [Griseofulvin], the perinuclear lysosome accumulation amounted to 1.85.
Next, `COc1cc(N)c(Cl)cc1C(=O)NC1CCN(CCCOc2ccc(F)cc2)CC1OC` (stereo not given) [Cisapride]: 0.265.
Next, `CN(C)CCC(c1ccc(Cl)cc1)c1ccccn1` (stereo not given) [Chlorpheniramine maleate]: -0.589.
With `CCCC(CCC)C(=O)O` [Valproic acid], the perinuclear lysosome accumulation was -0.35.
For `CN(C)CCCC1(c2ccc(F)cc2)OCc2cc(C#N)ccc21` (stereo not given) [Citalopram Hydrobromide] the value was 0.645.
On to `O=C(O)CNC(=O)C(CS)Cc1ccccc1` (stereo not given) [Thiorphan], for which the perinuclear lysosome accumulation was -1.55.
`CC(CN1c2ccccc2Sc2ccccc21)N(C)C` (stereo not given) [Promethazine hydrochloride]: the perinuclear lysosome accumulation worked out at 0.912.
As to `NS(=O)(=O)c1cc2c(cc1C(F)(F)F)NC(Cc1ccccc1)NS2(=O)=O` (stereo not given) [Bendroflumethiazide], the perinuclear lysosome accumulation was 0.193.
In the case of `O=C(c1ccc(OCCN2CCCCC2)cc1)c1c(-c2ccc(O)cc2)sc2cc(O)ccc12` [Raloxifene hydrochloride], the perinuclear lysosome accumulation was -1.61.
For `CCn1cc(C(=O)O)c(=O)c2cc(F)c(N3CCNCC3)cc21` [Norfloxacin], the perinuclear lysosome accumulation turned out to be 0.751.
Turning to `CCOC(=O)C1=C(C)NC(C)=C(C(=O)OC)C1c1cccc([N+](=O)[O-])c1` (stereo not given) [Nitrendipine], the perinuclear lysosome accumulation was -0.402.
As to `CC1CCc2cc(F)cc3c(=O)c(C(=O)O)cn1c23` (stereo not given) [Flumequine], the perinuclear lysosome accumulation was 0.094.
For `CCCCOc1ccc(OCCCN2CCOCC2)cc1` [Pramoxine hydrochloride], the perinuclear lysosome accumulation was 1.27.
For `COc1ccccc1OCCNCC(O)COc1cccc2[nH]c3ccccc3c12` (stereo not given) [Carvedilol], the perinuclear lysosome accumulation was 1.16.
